Experimental data as given in patent publication US9603841B2, “Vector delivery-based microbicides” (Rush University Medical Center, priority 2005, dated 2017).
For some assays here: At least one structure is not confirmed: it was looked up by name or label, or the drawing left a doubt. Some results were stated once for a whole list of compounds, not compound by compound.

Experiments:
spermatozoa [1] = assay: Sperm immobilization (modified Sander and Cramer), motile spermatozoa; assay type: cell-based; conditions: concentrations 4-8 orders of magnitude greater than required to induce acrosomal loss
Excerpt: Data are presented as the percentage of motile spermatozoa at each concentration of test agent. When possible, test outcomes were also reported as the concentration of agent in the semen sample that reduces motility by 50%.

spermatozoa [2] = conditions: cited from earlier work

Structure (SMILES): O=[N+]([O-])OCCCO [Nitrooxypropanol, 3-nitrooxy-1-propanol]
- reduction of sperm motility (spermatozoa [1]): less than 10%

Structure (SMILES): O=C1NC(=O)C(c2ccccc2)(c2ccccc2)N1 [diphenylhydantoin]
- effect on SAMMA-induced acrosomal loss (spermatozoa [2]): dose-dependent inhibition
